Assay results published in article PMC7077750 (Journal of medicinal chemistry, 2020).
Converted amounts (≈) assume the structure as drawn.

Assay: physchem
Conditions: pH 7.4

`O=[N+]([O-])CC(c1ccccc1)c1c(-c2ccccc2)[nH]c2ccccc12` (stereo not shown) [Compound 6d, 3-(2-Nitro-1-phenylethyl)-2-phenyl-1H-indole] gave a solubility thermodynamic of 2.7 µg/mL (≈ 7.89 µM).
